# Positions count from the first letter of the chain named. This is one part of the list.
# How the values were obtained:
# Details in all cases: yeast three-hybrid, YBZ-1, SC-Leu-His + 0.5 mM 3-AT, 4 days
# [1] = target: T1, PUM1 PUF domain R5-DYF C1007D + R1008Y + Q1011F (Homo sapiens) (UniProt Q14671)
# T1 sequence: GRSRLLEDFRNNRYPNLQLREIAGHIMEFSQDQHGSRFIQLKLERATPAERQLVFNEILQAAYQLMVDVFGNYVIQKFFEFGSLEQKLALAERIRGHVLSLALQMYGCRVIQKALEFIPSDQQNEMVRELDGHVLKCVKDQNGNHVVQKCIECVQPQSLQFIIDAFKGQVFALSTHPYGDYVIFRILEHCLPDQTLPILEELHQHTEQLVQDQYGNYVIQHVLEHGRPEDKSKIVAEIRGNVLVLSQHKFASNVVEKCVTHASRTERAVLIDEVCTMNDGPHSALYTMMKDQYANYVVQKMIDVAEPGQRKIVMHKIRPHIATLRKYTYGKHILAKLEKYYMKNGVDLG
# [2] = target: T2, PUM1 PUF domain R5-GTR C1007G + R1008T + Q1011R (Homo sapiens) (UniProt Q14671)
# T2 sequence: T1 sequence with D180G, Y181T, F184R
# [3] = target: T3, PUM1 PUF domain R5-KDR C1007K + R1008D + Q1011R (Homo sapiens) (UniProt Q14671)
# T3 sequence: T1 sequence with D180K, Y181D, F184R
# [4] = target: T4, PUM1 PUF domain R5-KSV C1007K + R1008S + Q1011V (Homo sapiens) (UniProt Q14671)
# T4 sequence: T1 sequence with D180K, Y181S, F184V
# [5] = target: T5, PUM1 PUF domain R5-MKC C1007M + R1008K + Q1011C (Homo sapiens) (UniProt Q14671)
# T5 sequence: T1 sequence with D180M, Y181K, F184C
# [6] = target: T6, PUM1 PUF domain R5-NAG C1007N + R1008A + Q1011G (Homo sapiens) (UniProt Q14671)
# T6 sequence: T1 sequence with D180N, Y181A, F184G
# [7] = target: T7, PUM1 PUF domain R5-QLV C1007Q + R1008L + Q1011V (Homo sapiens) (UniProt Q14671)
# T7 sequence: T1 sequence with D180Q, Y181L, F184V
# [8] = target: T8, PUM1 PUF domain R5-QRW C1007Q + Q1011W (Homo sapiens) (UniProt Q14671)
# T8 sequence: T1 sequence with D180Q, Y181R, F184W
# [9] = target: T9, PUM1 PUF domain R5-RAI C1007R + R1008A + Q1011I (Homo sapiens) (UniProt Q14671)
# T9 sequence: T1 sequence with D180R, Y181A, F184I
# [10] = target: T10, PUM1 PUF domain R5-RAM C1007R + R1008A + Q1011M (Homo sapiens) (UniProt Q14671)
# T10 sequence: T1 sequence with D180R, Y181A, F184M
# [11] = target: T11, PUM1 PUF domain R5-RAP C1007R + R1008A + Q1011P (Homo sapiens) (UniProt Q14671)
# T11 sequence: T1 sequence with D180R, Y181A, F184P
# [12] = target: T12, PUM1 PUF domain R5-RKD C1007R + R1008K + Q1011D (Homo sapiens) (UniProt Q14671)
# T12 sequence: T1 sequence with D180R, Y181K, F184D
# [13] = target: T13, PUM1 PUF domain R5-RLQ C1007R + R1008L (Homo sapiens) (UniProt Q14671)
# T13 sequence: T1 sequence with D180R, Y181L, F184Q
# [14] = target: T14, PUM1 PUF domain R5-RMS C1007R + R1008M + Q1011S (Homo sapiens) (UniProt Q14671)
# T14 sequence: T1 sequence with D180R, Y181M, F184S
# [15] = target: T15, PUM1 PUF domain R5-RST C1007R + R1008S + Q1011T (Homo sapiens) (UniProt Q14671)
# T15 sequence: T1 sequence with D180R, Y181S, F184T
# [16] = target: T16, PUM1 PUF domain R5-SAP C1007S + R1008A + Q1011P (Homo sapiens) (UniProt Q14671)
# T16 sequence: T1 sequence with D180S, Y181A, F184P
# [17] = target: T17, PUM1 PUF domain R5-SGG C1007S + R1008G + Q1011G (Homo sapiens) (UniProt Q14671)
# T17 sequence: T1 sequence with D180S, Y181G, F184G
# [18] = target: T18, PUM1 PUF domain R5-SQS C1007S + R1008Q + Q1011S (Homo sapiens) (UniProt Q14671)
# T18 sequence: T1 sequence with D180S, Y181Q, F184S
# [19] = target: T19, PUM1 PUF domain R5-SSR C1007S + R1008S + Q1011R (Homo sapiens) (UniProt Q14671)
# T19 sequence: T1 sequence with D180S, Y181S, F184R
# [20] = target: T20, PUM1 PUF domain R5-SVS C1007S + R1008V + Q1011S (Homo sapiens) (UniProt Q14671)
# T20 sequence: T1 sequence with D180S, Y181V, F184S
sequence,measurement,setting,value
GGCUAGAACUAGUGGAUCCCCCGGCGCCCGGCGGCUCGAGCCCGGGUAAGUGUAAAUAGUCUGCAUGCCGCCGGGCGCCAUGCCUGCAGGUCGACUCUAGAAAACAUG,binding signal (log2 enrichment (interaction score)),[1],-1.57
same,binding signal (log2 enrichment (interaction score)),[2],-1.82
same,binding signal (log2 enrichment (interaction score)),[3],-1.62
same,binding signal (log2 enrichment (interaction score)),[4],-1.38
same,binding signal (log2 enrichment (interaction score)),[5],-1.63
same,binding signal (log2 enrichment (interaction score)),[6],-1.45
same,binding signal (log2 enrichment (interaction score)),[7],-1.65
same,binding signal (log2 enrichment (interaction score)),[8],-1.48
same,binding signal (log2 enrichment (interaction score)),[9],-1.52
same,binding signal (log2 enrichment (interaction score)),[10],-1.38
same,binding signal (log2 enrichment (interaction score)),[11],-1.4
same,binding signal (log2 enrichment (interaction score)),[12],-1.43
same,binding signal (log2 enrichment (interaction score)),[13],-1.54
same,binding signal (log2 enrichment (interaction score)),[14],-1.65
same,binding signal (log2 enrichment (interaction score)),[15],-1.41
same,binding signal (log2 enrichment (interaction score)),[16],-1.46
same,binding signal (log2 enrichment (interaction score)),[17],-1.6
same,binding signal (log2 enrichment (interaction score)),[18],-1.64
same,binding signal (log2 enrichment (interaction score)),[19],-1.5
same,binding signal (log2 enrichment (interaction score)),[20],-1.58

# Some of the entries so far, with tabs:
sequence	measurement	setting	value
GGCUAGAACUAGUGGAUCCCCCGGCGCCCGGCGGCUCGAGCCCGGGUAAGUGUAAAUAGUCUGCAUGCCGCCGGGCGCCAUGCCUGCAGGUCGACUCUAGAAAACAUG	binding signal (log2 enrichment (interaction score))	[16]	-1.46
same	binding signal (log2 enrichment (interaction score))	[19]	-1.5

# — PMC8384837
